Reference: PubChem BioAssay AID1671190 (National Center for Advancing Translational Sciences (NCATS), 2021)
“And” between values parts separate entries of the source, which are not always exact repeats. Equal entries are not always repeated. The whole screen tested about 580,000 compounds, of which about 6,100 (1.1%) were called active. This list was built around the results that the source calls inconclusive (neither active nor inactive); the mix of calls is not that of the screen. Calls come from the whole dose curve; as a rule, active = well fitted inhibition curve with a large enough effect; inconclusive = small, poorly fitted or top-dose-only effect, or another doubt; inactive = no such curve, though single readings can be large or run the other way. Potencies beside an inconclusive call are fits to weak or partial responses and may not hold up.
% is set by controls: 0 for no effect and ±100 for the full control effect; potency is the fitted concentration of half-maximal effect.

The chains behind the UniProt entries cited, without tags or fusion partners.
UniProt P18054, whole entry, looked up: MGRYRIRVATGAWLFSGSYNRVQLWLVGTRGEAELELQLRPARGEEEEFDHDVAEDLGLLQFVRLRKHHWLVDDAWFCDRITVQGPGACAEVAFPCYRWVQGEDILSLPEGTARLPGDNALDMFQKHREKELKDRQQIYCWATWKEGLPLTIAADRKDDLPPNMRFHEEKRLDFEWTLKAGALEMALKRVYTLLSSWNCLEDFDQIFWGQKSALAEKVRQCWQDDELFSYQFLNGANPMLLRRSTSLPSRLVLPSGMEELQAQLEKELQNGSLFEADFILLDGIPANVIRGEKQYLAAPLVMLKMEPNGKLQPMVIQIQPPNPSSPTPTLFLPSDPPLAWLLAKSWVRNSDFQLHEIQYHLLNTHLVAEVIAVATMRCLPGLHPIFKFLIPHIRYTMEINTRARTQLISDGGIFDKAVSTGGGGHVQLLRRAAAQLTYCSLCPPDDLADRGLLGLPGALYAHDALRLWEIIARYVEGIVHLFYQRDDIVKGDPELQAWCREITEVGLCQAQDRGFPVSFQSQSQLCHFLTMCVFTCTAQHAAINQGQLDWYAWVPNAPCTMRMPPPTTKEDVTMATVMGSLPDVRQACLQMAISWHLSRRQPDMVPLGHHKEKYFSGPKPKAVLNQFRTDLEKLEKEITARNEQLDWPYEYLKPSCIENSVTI

What follows are compounds tested against Polyunsaturated fatty acid lipoxygenase ALOX12 (Homo sapiens) (UniProt P18054) (assay: Primary qHTS assay for inhibitors of human arachidonate 12S-lipoxygenase (ALOX12): Round 2). Settings: purified 12hLO, xylenol orange hydroperoxide absorbance; activity change, negative = inhibition: at 108 µM (top of the series) unless noted.
In short: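 Hydroperoxide product was detected by ferrous iron/xylenol orange as the 573 to 405 nm absorbance ratio. Arachidonic acid at 40 uM (final) was turned over for 30 min at room temperature by 150 nM human 12hLO, pH 7.0 Hepes buffer, after 15 min compound preincubation.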
In the case of `Cc1cc(C)cc(N(CC(=O)Nc2ccc(Br)cc2)S(=O)(=O)c2c(C)[nH]c(=O)[nH]c2=O)c1`, the Potency is reported as inconclusive: 50.1 µM [inhibitor, partial curve, poor fit]. In the case of `Cc1ccc(S(=O)(=O)C2(C(=O)Nc3nccs3)CC2)cc1`, the Potency is reported as inconclusive: 2.24 µM [inhibitor, full curve, poor fit]. `CN(C)C(=O)C1CN(C(=O)Cc2cccc(Cl)c2)CC12CCOCC2` (stereo unspecified) was tested, and the “activity change, negative = inhibition” value was inactive: 17.7%. For `CC(C)=CCC[C@](C)(O[C@@H]1O[C@H](CO[C@@H]2OC[C@H](O[C@@H]3OC[C@@H](O)[C@H](O)[C@H]3O)[C@H](O)[C@H]2O)[C@@H](O)[C@H](O)[C@H]1O)C1CC[C@]2(C)C1[C@H](O)CC1[C@@]3(C)CC[C@H](O)C(C)(C)C3[C@@H](O)C[C@]12C` (stereo partly specified), the Potency was inconclusive: 100 µM [inhibitor, single point]. `O=C(CCN1CCN(S(=O)(=O)c2cccc([N+](=O)[O-])c2)CC1)Nc1ccccc1F` was tested, and the “activity change, negative = inhibition” value was inactive: -11%. In the case of `CC1CC(O)C(C)(C)N(C)C1` (stereo unspecified), the Potency is reported as inconclusive: 50.1 µM [inhibitor, partial curve, poor fit]. For `Cc1cccc(-n2cc(CNCCc3nc(C)cc(C)n3)c(-c3cccc(F)c3)n2)c1`, the Potency was inconclusive: 50.1 µM [inhibitor, partial curve, poor fit]. With `Cc1ccc(-c2nn(CCC(=O)NC(C)C)c(=O)c3ccccc23)cc1` the Potency was inconclusive: 5.62 µM [inhibitor, full curve, poor fit]. With `Cc1ccc2c(Sc3ccc(Cl)cc3)c(C(=O)N3CCCCC3)[nH]c2c1` the Potency was inconclusive: 79.4 µM [inhibitor, partial curve, poor fit]. In the case of `COc1ccc(C(CCN2CCCC2)c2c(OC)cc(OC)c3c(-c4ccccc4)cc(=O)oc23)cc1` (stereo unspecified), the Potency is reported as inconclusive: 44.7 µM [inhibitor, partial curve, poor fit]. For `C[C@H](CO)N1C[C@H](C)[C@@H](CN(C)S(C)(=O)=O)Oc2ccc(NS(=O)(=O)c3cn(C)cn3)cc2C1=O`, the Potency was inconclusive: 89.1 µM [inhibitor, single point]. For `COc1cc(F)ccc1-c1ccc(=O)n(CC(=O)N2CCC(Cc3ccccc3)CC2)n1`, the Potency was inconclusive: 17.8 µM [inhibitor, partial curve, poor fit]. `COc1ccc(NC(=O)N2CC[C@@H](CC(=O)O)[C@@H](CC3=NCCc4cc(OC)c(OC)cc43)C2)cc1` was tested, and the Potency was inconclusive: 28.2 µM [inhibitor, full curve]. `CC(C)C[C@H](NC(=O)[C@@H](O)[C@H](N)Cc1ccccc1)C(=O)O` was tested, and the Potency was inconclusive: 0.447 µM [inhibitor, full curve, poor fit]. In the case of `O=C(NCc1cccc(Br)c1)C1CCN(c2cnc3nccnc3c2)CC1`, the Potency is reported as inconclusive: 35.5 µM [inhibitor, partial curve]. In the case of `COc1nc(N)c(C#N)c(-c2ccc(N(C)CCC#N)cc2)c1C#N`, the Potency is reported as inconclusive: 44.7 µM [inhibitor, partial curve, poor fit]. With `Cc1ccc(NC(=O)c2nc[nH]c2C(=O)N[C@@H](C)c2ccccc2)cc1` the Potency was inconclusive: 79.4 µM [inhibitor, single point]. `CCOC(=O)c1cc2occc2n1CC(=O)N1CCOCC1` was tested, and the Potency was inconclusive: 56.2 µM [inhibitor, partial curve, poor fit]. `S=c1[nH]cc(-c2ccccc2)n1-c1ccccc1Cl` was tested, and the Potency was inconclusive: 7.08 µM [inhibitor, full curve, poor fit]. With `CCCS(=O)(=O)c1c(S(=O)(=O)CCC)c2c(N)cccn2c1C(=O)c1ccc(Br)cc1` the Potency was active: 6.31 µM. `COc1ccc(C(=O)N2CCN(CCCc3ccccc3)CC2)cc1OC` was tested, and the Potency was inconclusive: 0.562 µM [inhibitor, full curve]. In the case of `O=C(COC(=O)C(c1ccccc1)c1ccccc1)NCc1ccco1`, the “activity change, negative = inhibition” value is reported as inactive: -27.8%. `O=S(=O)(NC1=NCCC1)c1cccc(NC(=S)NCCc2ccccc2)c1` was tested, and the Potency was inconclusive: 44.7 µM [inhibitor, partial curve, poor fit]. For `COC(=O)C1=C(C(=O)OC)SC(=C2C(=S)C(C)(C)N(C(=O)C(C)C)c3ccccc32)S1`, the Potency was inconclusive: 11.2 µM [inhibitor, full curve, poor fit]. `CC(C)C(=O)NCCc1nc2ccccc2n1CCOc1ccccc1` was tested, and the “activity change, negative = inhibition” value was inactive: -20.3%. In the case of `O=C(NCc1ccc2c(c1)OCCO2)N1CCN(S(=O)(=O)c2cc(F)ccc2F)CC1`, the “activity change, negative = inhibition” value is reported as inactive: 0.476%. For `Cc1cc(C)c(C(=O)/C=C/C=C/c2ccccc2)c(=O)[nH]1`, the Potency was inconclusive: 44.7 µM [inhibitor, partial curve, poor fit]. `O=C(NCCc1ccccc1)N1CCCC(c2nc(CCOCC3CC3)no2)C1` (stereo unspecified) was tested, and the “activity change, negative = inhibition” value was inactive: 15.8%. With `COc1ccc(/C=C/C(=O)Oc2ccccc2C)cc1` the Potency was inconclusive: 50.1 µM [inhibitor, partial curve, poor fit]. In the case of `CCC(C)NC(=O)C1c2ccccc2C(=O)N1Cc1cc(OC)ccc1OC` (stereo unspecified), the “activity change, negative = inhibition” value is reported as inactive: -24.4%. In the case of `O=C(CN(Cc1ccccc1)S(=O)(=O)c1ccccc1)NC1CC1`, the “activity change, negative = inhibition” value is reported as inactive: 1.44%. For `CC(C)Oc1ccc(C(=O)O)cc1Br`, the Potency was inconclusive: 126 µM [inhibitor, single point]. For `C=C(C)C1CC=C(C)/C(=N/NC(=S)Nc2ccc(C)cc2)C1` (stereo unspecified), the Potency was inconclusive: 50.1 µM [inhibitor, partial curve, poor fit]. With `Nc1ccc(-c2cccc(CN3CCCC3)c2)cc1` the Potency was inconclusive: 10 µM [inhibitor, full curve, poor fit]. `Cc1nn(C)c(C)c1CC(=O)Nc1nc(-c2ccc(Cl)cc2Cl)cs1` was tested, and the Potency was inconclusive: 39.8 µM [inhibitor, partial curve]. `O=C(CCCc1ccccc1)N1C[C@@H](CN2CCOCC2)[C@@H](CO)C1` was tested, and the “activity change, negative = inhibition” value was inactive: 17.3%. For `Clc1ccccc1OCCN1CCCCC1`, the Potency was inconclusive: 0.0708 µM [inhibitor, full curve, poor fit]. `O=C(c1ccc(NS(=O)(=O)c2ccc(Cl)c(Cl)c2)cc1)N1CCOCC1` was tested, and the Potency was inconclusive: 63.1 µM [inhibitor, partial curve, poor fit]. `CC(=O)Oc1c(S(=O)(=O)c2ccc(C)cc2)c(C)nn1-c1ccccc1` was tested, and the Potency was inconclusive: 8.91 µM [inhibitor, partial curve, poor fit]. For `O=c1nc(/C=C/c2ccccc2C(F)(F)F)cc(C(F)(F)F)[nH]1`, the Potency was inconclusive: 44.7 µM [inhibitor, partial curve, poor fit]. For `COc1ccc(Cl)cc1S(=O)(=O)N(C)CC(=O)NCc1ccc2c(c1)OCO2`, the Potency was inconclusive: 89.1 µM [inhibitor, single point]. `c1ccc(-c2csc(C34CC5CC(CC(C5)C3)C4)n2)cc1` was tested, and the Potency was inconclusive: 35.5 µM [inhibitor, partial curve, poor fit]. For `C=CCc1ccc(O)c(-c2ccc(O)c(CC=C)c2)c1`, the Potency was inconclusive: 4.85 µM [inhibitor, partial curve] and inconclusive: 141 µM [inhibitor, single point]. With `O=c1c2ccccc2nnn1-c1ccc(Br)cc1` the Potency was inconclusive: 28.2 µM [inhibitor, partial curve, poor fit]. `O=C(c1n[nH]c2c1CCCCCC2)N1CCc2c(nc3cc(-c4ccccc4)[nH]n3c2=O)C1` was tested, and the Potency was inconclusive: 15.8 µM [inhibitor, full curve, poor fit]. `Cc1ccc(NC(=O)CNC(=O)c2ccco2)nc1` was tested, and the Potency was inconclusive: 126 µM [inhibitor, single point]. In the case of `NC(CO)(CO)CCc1ccc(Sc2cccc(OCc3ccccc3)c2)cc1Cl`, the Potency is reported as inconclusive: 1.93 µM [inhibitor, full curve]. `O=C(Nc1nc(-c2ccco2)cs1)c1ccccc1` was tested, and the Potency was inconclusive: 44.7 µM [inhibitor, partial curve, poor fit]. `NC(=O)c1cc(-c2ccccc2)nc2ccc(Br)cc12` was tested, and the Potency was inconclusive: 126 µM [inhibitor, single point]. With `Cc1ccc(S(=O)(=O)N(Cc2nc3nc(C)cc(C)n3n2)c2cccc(C)c2)cc1` the “activity change, negative = inhibition” value was inactive: -37.2%. With `O=C(Nc1cc(=O)[nH]c2nc(Cc3ccccc3)nn12)c1ccc(Cl)cc1Cl` the Potency was inconclusive: 2.82 µM [inhibitor, full curve, poor fit]. `CN(C)c1cccc(C(=O)OCc2ccc(C#N)cc2)c1` was tested, and the Potency was inconclusive: 35.5 µM [inhibitor, partial curve, poor fit]. For `O=C(O)CCCNS(=O)(=O)c1ccc(C(=O)O)cc1`, the “activity change, negative = inhibition” value was inactive: -28.8%. In the case of `Cc1ccccc1CS(=O)(=O)c1ccc(C(=O)N2CCOCC2)cc1[N+](=O)[O-]`, the “activity change, negative = inhibition” value is reported as inactive: 16%. `Fc1ccccc1Nc1cnc2ccc(-n3ccnc3)nn12` was tested, and the Potency was inconclusive: 39.8 µM [inhibitor, full curve]. For `C[C@H]1COC(=O)[C@H](NC(=O)OCC2c3ccccc3-c3ccccc32)C/C=C\C[C@H](CC(=O)N(CCO)Cc2ccccc2)C(=O)N1`, the Potency was active: 39.8 µM. For `C1=C(c2ccccc2)CCN(c2nc3ccccc3n3cnnc23)C1`, the Potency was inconclusive: 15.8 µM [inhibitor, full curve]. For `COc1cc(C(=O)NCc2coc(-c3cccs3)n2)cc(OC)c1C`, the Potency was inconclusive: 2.82 µM [inhibitor, full curve]. `CC(Sc1cc(-c2ccccc2)ncn1)C(=O)Nc1ccccc1` (stereo unspecified) was tested, and the Potency was inconclusive: 14.1 µM [inhibitor, partial curve, poor fit]. `Cc1cc(S(=O)(=O)Nc2ccc3ccccc3c2)c(C)s1` was tested, and the “activity change, negative = inhibition” value was inactive: -17.2%. `O=C(O)CCn1ncc2cc(OC3CCN(C(=O)OC4CCCC4)CC3)ccc21` was tested, and the Potency was inconclusive: 3.55 µM [inhibitor, full curve, poor fit].
